No constants are given. Whether binding was seen depends on the method and setting. In cells and extracts the contact can be indirect. Here binding means that the protein was enriched with, or labelled near, the bait; the list need not be complete.
Target: Ezh1α-FLAG-HA (UniProt P70351)
Assay: affinity purification with mass spectrometry; tandem affinity purification (Flag, then HA) of Ezh1α-FH from nuclear extracts of C2C12 myotubes under normal condition; wild-type C2C12 as mock; LC-MS

Protein sequences, listed by entry. Tags and fused reporters are not part of them.
UniProt P70351: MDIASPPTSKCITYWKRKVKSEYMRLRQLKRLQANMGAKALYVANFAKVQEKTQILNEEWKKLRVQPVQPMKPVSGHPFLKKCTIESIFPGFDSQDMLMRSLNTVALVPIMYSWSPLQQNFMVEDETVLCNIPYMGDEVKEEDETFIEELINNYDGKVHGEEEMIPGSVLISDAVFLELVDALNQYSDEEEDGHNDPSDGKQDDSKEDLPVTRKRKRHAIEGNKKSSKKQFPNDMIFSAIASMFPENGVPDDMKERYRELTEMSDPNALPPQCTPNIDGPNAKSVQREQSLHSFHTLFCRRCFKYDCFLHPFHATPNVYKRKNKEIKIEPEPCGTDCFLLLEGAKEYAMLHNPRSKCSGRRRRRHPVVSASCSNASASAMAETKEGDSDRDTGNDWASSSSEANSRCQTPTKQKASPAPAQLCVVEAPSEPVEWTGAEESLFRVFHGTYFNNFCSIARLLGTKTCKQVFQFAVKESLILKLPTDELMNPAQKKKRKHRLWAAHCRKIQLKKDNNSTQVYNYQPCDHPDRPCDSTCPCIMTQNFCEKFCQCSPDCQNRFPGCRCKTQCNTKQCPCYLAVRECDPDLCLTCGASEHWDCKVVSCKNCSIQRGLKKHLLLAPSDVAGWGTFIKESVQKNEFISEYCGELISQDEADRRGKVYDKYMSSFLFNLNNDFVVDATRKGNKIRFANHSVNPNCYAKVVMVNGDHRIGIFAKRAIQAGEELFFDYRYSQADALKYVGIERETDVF
UniProt Q9Z1B8: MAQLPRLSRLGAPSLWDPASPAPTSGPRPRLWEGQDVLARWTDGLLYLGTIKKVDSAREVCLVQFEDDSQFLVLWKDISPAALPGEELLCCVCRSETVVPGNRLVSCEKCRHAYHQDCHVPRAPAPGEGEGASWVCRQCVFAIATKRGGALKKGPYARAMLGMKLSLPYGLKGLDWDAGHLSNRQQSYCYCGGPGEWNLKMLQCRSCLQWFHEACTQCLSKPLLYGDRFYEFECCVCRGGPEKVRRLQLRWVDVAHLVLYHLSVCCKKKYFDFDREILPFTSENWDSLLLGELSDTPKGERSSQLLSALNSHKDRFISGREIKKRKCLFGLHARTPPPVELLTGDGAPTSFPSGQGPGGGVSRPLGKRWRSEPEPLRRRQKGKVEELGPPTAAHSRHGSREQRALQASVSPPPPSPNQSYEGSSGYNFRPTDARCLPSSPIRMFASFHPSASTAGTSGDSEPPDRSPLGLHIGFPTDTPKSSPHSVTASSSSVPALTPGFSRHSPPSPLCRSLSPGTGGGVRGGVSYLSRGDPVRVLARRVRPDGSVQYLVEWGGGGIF

binding: binds
Substance: PHF1 (from UniProt Q9Z1B8 1-559)
